Assay results: PubChem BioAssay AID588391 (Broad Institute, 2011)
Among all 350,000 compounds or so, about 180 (0.051%) were called active. Inconclusive results, whose numbers are uncertain, are shown with a selection of clear calls.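 The calls were made as follows: active = mean inhibition across replicates of 30% or more, whatever share of single replicates reach that level; inconclusive = mean inhibition below 30% while every single replicate reaches 30%; inactive = the rest.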 Where a structure was tested more than once in an assay, its records may differ in their call.

Chains of the proteins cited; added tags and fusions are not shown.
UniProt P07237, whole entry, looked up: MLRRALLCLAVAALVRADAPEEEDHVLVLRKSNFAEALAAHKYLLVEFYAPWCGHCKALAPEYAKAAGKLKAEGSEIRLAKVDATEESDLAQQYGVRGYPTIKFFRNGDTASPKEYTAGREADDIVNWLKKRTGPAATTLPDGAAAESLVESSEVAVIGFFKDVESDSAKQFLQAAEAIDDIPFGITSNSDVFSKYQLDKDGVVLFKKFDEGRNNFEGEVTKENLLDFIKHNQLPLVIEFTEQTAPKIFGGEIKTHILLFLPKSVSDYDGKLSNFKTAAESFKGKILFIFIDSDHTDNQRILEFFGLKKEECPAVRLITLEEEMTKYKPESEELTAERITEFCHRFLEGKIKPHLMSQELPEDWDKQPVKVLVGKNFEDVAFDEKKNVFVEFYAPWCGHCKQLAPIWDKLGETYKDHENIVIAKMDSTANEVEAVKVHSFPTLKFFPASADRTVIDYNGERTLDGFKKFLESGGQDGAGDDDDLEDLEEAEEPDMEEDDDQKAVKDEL

Target: Protein disulfide-isomerase (Homo sapiens) (UniProt P07237)
Test: blockers of PDI-driven insulin aggregation – biochemical, turbidity, single point, plate reader, primary screen (AID 588391);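 also: absorbance from insulin aggregation driven by PDI reduction with DTT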
Conditions: A650, 90 min, at 10 µM, hits give high values

SMILES | inhibition
c1ccc(C(c2ccccc2)c2noc(CN3CCC(c4ccncc4)CC3)n2)cc1 | inactive: 14.5%
Cc1ccc(NC(=O)CCN2C(=O)c3cccc([N+](=O)[O-])c3C2=O)c(Br)c1 | inactive: -1.83%
O=C(c1ccccc1)c1ccc(OC(=O)N2CCCC2)cc1 | inconclusive: 30.3%
COc1ccc(OCCSc2nc(C)c(Cc3ccccc3)c(=O)[nH]2)cc1 | inactive: 1.12%
CCOc1ccc(/C=N/n2c(SC)nnc2-c2ccccc2)cc1OCC | inconclusive: 31.3%
CCC(=O)N1CCC(C)(C(=O)Nc2cc(OC)c(OC)c(OC)c2)C1 (stereo not drawn) | inactive: -1.21%
CCCCCOC(=O)CCN1C(=O)/C(=C2\SC(=S)N(CCC(=O)OCCCCC)C2=O)SC1=S | inactive: -3.78%
O=C(N/N=C/C=C\c1ccccc1[N+](=O)[O-])c1cccs1 | inconclusive: 33.7%
COc1ccc(C2c3ccc(O)cc3Oc3ncn(CCCO)c(=N)c32)cc1OC (stereo not drawn) | inconclusive: 30.9%
O=C1NC[C@H](Cc2ccc(O)cc2)N(CC2CCCCC2)C1=O | active: 34.4%
COc1ccc(N(Cc2cc3cc(OC)ccc3[nH]c2=O)C(=O)C2CCCO2)cc1 (stereo not drawn) | inconclusive: 30.4%
O=C1CC(C(=O)N2CCc3ccccc32)CN1c1ccc(F)cc1 (stereo not drawn) | inconclusive: 32.6%
COC(=O)c1ccc(COC(=O)CSCC(=O)Nc2ccc(C)cc2C)cc1 | inconclusive: 33%
O=C(NCc1ccccc1CN1CCCC1)c1cc2ccccc2o1 | inconclusive: 32.5%
O=C(NC(=S)Nc1cccc(NC(=O)c2ccccc2)c1)c1cccc([N+](=O)[O-])c1 | active: 31.7%
COCCNC(=O)C1(C)Cc2c(-c3cccc(C(F)(F)F)c3)ccnc2O1 (stereo not drawn) | inactive: 4.61%
CCOC(=O)c1sc2nccc(N(C)C)c2c1N=CNOCc1ccccc1 | inconclusive: 37.1%
Cc1cc(C)nc(N(C#N)Cc2ccc([N+](=O)[O-])cc2)n1 | inactive: 7.36%
CN(CCC(=O)Nc1ccc(Br)cc1)Cc1ccccc1 | inconclusive: 41%
O=C(CSc1nc2[nH]c(=O)cc(O)c2s1)Nc1ccc(Cl)c(C(F)(F)F)c1 | inactive: 15%
Cc1ccc(NC2Nc3cc(C)nn3S2)c(C)c1 (stereo not drawn) | inactive: 1.74%

SMILES | inhibition
O=C(OCc1ccc(-c2ccccc2)cc1)c1cccc(O)c1 | inconclusive: 30.8%
CC1(C(=O)Nc2cccc3c2CCCC3)CCN1C(=O)c1cccc(F)c1 (stereo not drawn) | inconclusive: 100%
Cc1ccc(S(=O)(=O)N2CCOCC2)cc1NC(=O)CN(C)CC(=O)Nc1cccc(F)c1 | inactive: 5.69%
CN1CCN(C2=C(Cl)C(=O)c3ccccc3C2=O)CC1 | active: 40.8%
COc1ccc(CNc2oc(COc3ccc(Cl)cc3)nc2C#N)cc1 | inactive: 15.2%
Cc1ccc(S(=O)(=O)CCC(=O)c2ccc(O)cc2O)cc1 | inconclusive: 30.1%
O=C(COC(=O)c1ccccc1NC(=O)c1ccco1)NCCC1=CCCCC1 | inconclusive: 31.3%
O=C(O)c1ccccc1Cc1ccc(F)c2ccccc12 | inconclusive: 99%
O=S(=O)(c1cc(F)ccc1F)N1CCN(c2ncccn2)CC1 | active: 34.1%
Cc1ccc(C)c(S(=O)(=O)Nc2ccc3oc(C)c(C(=O)O)c3c2)c1 | inactive: -1.85%
COc1ccc(-c2cc3nc(-c4ccccc4)cc(N4CCN(C(=O)c5ccsc5)CC4)n3n2)cc1 | inactive: 3.26%
Nc1ccc2c(c1)C(=O)C(=O)c1ccccc1-2 | inconclusive: 66.3%
O=C(CCS(=O)(=O)c1ccccc1)N(CCCN1CCOCC1)c1nc2ccccc2s1 | active: 37.9%
Cc1[nH][nH]c(=O)c1C(c1c(C)[nH][nH]c1=O)c1cn(Cc2ccccc2Cl)c2ccccc12 | inconclusive: 47.4%
CN(C)c1ccc(C2(O)C(=O)c3ccccc3C2=O)cc1 | inconclusive: 35.2%
S=C(NCc1ccco1)N1CCN(C(c2ccccc2)c2ccccc2)CC1 | inactive: 1.13%
Cc1nc(C(=O)Nc2cccc(Cl)c2Cl)nn1-c1cc(OC(C)C)c(Cl)cc1Cl | inconclusive: 35.9%
S=C(NCCN1CCOCC1)Nc1ccc(Br)cc1 | inconclusive: 32.5%
CCCN(CCC)C(=O)Cn1c(=O)n(CCCC(=O)NCc2ccco2)c(=O)c2sccc21 | inactive: -5.48%
O=c1[nH]c(C2CCN(S(=O)(=O)c3ccc(C(F)(F)F)cc3)CC2)nc2c1nnn2Cc1ccc(F)cc1 | inconclusive: 33.5%
NC(=O)c1ccc(NC(=O)COC(=O)c2ccc(Br)c(S(=O)(=O)N3CCOCC3)c2)cc1 | inconclusive: 30.7%

SMILES | inhibition
CCOC(=O)c1ccc2c(c1)nc(SCC(=O)N1CCCCC1)n2CC | inconclusive: 34.7%
CC1Cc2ccccc2N1C(=O)CSc1nnc2sc3ccccc3n12 (stereo not drawn) | inconclusive: 30%
C[C@H]1CNC(=O)c2c(C(=O)Nc3ccc(CNC(=O)OC(C)(C)C)cc3)ncn21 | inactive: -3.81%
CCCCC(=O)NC(c1ccccc1Cl)c1ccc2cccnc2c1O (stereo not drawn) | inactive: 0.887%
O=C(CCc1ccc(O)cc1)NN=Cc1cc(Br)ccc1O | active: 44.5%
CC(=O)C1=C(O)C(=O)N(CCc2c[nH]c3ccccc23)C1c1cccc(O)c1 (stereo not drawn) | inconclusive: 31.3%
Cc1cccc(Cn2c(C)c(C)c3cc(C(=O)NCCN4CCOCC4)ccc32)c1 | inconclusive: 62.4%
COc1ccc(OC)c(CN2CCN(Cc3cc(=O)oc4cc(O)ccc34)CC2)c1 | inconclusive: 30.5%
C[C@]12CC[C@@H]3c4ccc(O)cc4C(=O)C[C@H]3[C@@H]1CC[C@@H]2O | active: 39%
CN(C(=O)c1ccc(NC(=O)Cc2ccc(NC(=O)C3CCN(C(=O)C4CCC4)CC3)cc2)cc1)C1CC1 | inactive: 14.2%
CCOc1cc(N2CCOCC2)c(OCC)cc1NC(=O)Cc1ccccc1OC | inconclusive: 38.3%
COc1ccc2nc(NC(=O)CN3C(=O)NC4(CCCC4)C3=O)sc2c1 | inactive: 1.15%
COC(=O)c1ccc(NC(=S)NCCc2cccc(C)c2)cc1 | inconclusive: 41.8%
CCCCn1c(N)c(N(CC(C)C)C(=O)c2cc(-c3ccncc3)nc3ccccc23)c(=O)[nH]c1=O | inconclusive: 43.6%
CCc1nc2ccc(C(=O)NCCCN3CCCC3=O)cn2c1N(CCC(C)C)CCN(C)C | inactive: 6.34%
CS(=O)(=O)c1ccc(C(=O)OCC(=O)N2CCN(CCC3CCCCC3)CC2)cc1[N+](=O)[O-] | active: 91.5%
COc1ccccc1NS(=O)(=O)c1ccc(C)c(C(=O)NCC2(N(C)C)CCCCC2)c1 | inconclusive: 34.6%
NC1=NC(=O)S/C1=C\c1ccc(O)cc1 | active: 43.5%
CN1CCN(Cc2nc3ccccc3c(=O)n2Cc2nc(-c3ccc4ccccc4c3)cs2)CC1 | active: 43.8%
O=C(CN(CCc1ccccc1)C(=O)CNS(=O)(=O)c1ccccc1)NCC1CCCO1 (stereo not drawn) | inconclusive: 30.5%
Cc1cc(NC(=O)CSc2[nH]c(=O)cc(C(F)(F)F)c2C#N)no1 | inconclusive: 33.6%

Of the compounds above, these have a thiophene ring, fused or not.
SMILES | inhibition
O=C(N/N=C/C=C\c1ccccc1[N+](=O)[O-])c1cccs1 | inconclusive: 33.7%
CCOC(=O)c1sc2nccc(N(C)C)c2c1N=CNOCc1ccccc1 | inconclusive: 37.1%
COc1ccc(-c2cc3nc(-c4ccccc4)cc(N4CCN(C(=O)c5ccsc5)CC4)n3n2)cc1 | inactive: 3.26%
CCCN(CCC)C(=O)Cn1c(=O)n(CCCC(=O)NCc2ccco2)c(=O)c2sccc21 | inactive: -5.48%

Next entries.

SMILES | inhibition
COc1ccc(C(CCN2CCOCC2)c2c(OC)cc(OC)c3c(C)cc(=O)oc23)cc1 (stereo not drawn) | inactive: 0.0875%
CN(C)S(=O)(=O)c1ccc(C(=O)Nc2ccc3nc(N4CCOCC4)sc3c2)cc1 | inconclusive: 32.8%
CCN(CC)CCNC(=O)C(C(=O)c1ccccc1)n1ccccc1=O (stereo not drawn) | inconclusive: 56.8%
CCN(/C=N/c1sc2c(c1C#N)CCCCC2)CC | inconclusive: 36.5%
C[C@@H]1CN([C@@H](C)CO)C(=O)c2cccc(NS(C)(=O)=O)c2O[C@H]1CN(C)Cc1ccc(Oc2ccccc2)cc1 | inconclusive: 36.1%
COc1cccc(/C=N/NC(=O)CNC(=O)c2ccc3c(c2)OCCO3)c1O | inconclusive: 34%
CC(=O)N1c2ccc(S(=O)(=O)NCC3CCC(C(=O)NC4CCC(C)CC4)CC3)cc2CC1C (stereo not drawn) | inactive: 4.79%
O=S(=O)(c1ccccc1)N1N=C(c2ccc(O)cc2)CC1c1ccco1 (stereo not drawn) | active: 38.2%
O=c1[nH]c2ccc(S(=O)(=O)Nc3ccccc3O)cc2[nH]1 | inconclusive: 33.8%
COc1cc(C2C(C#N)=C(N)Oc3cc(O)ccc32)cc(OC)c1OC (stereo not drawn) | inconclusive: 35.9%
CCS(=O)(=O)c1ccc2oc(SCC(=O)NC(C)C3CC4CCC3C4)nc2c1 (stereo not drawn) | inconclusive: 30.6%
Cn1c(=O)n(CCCOc2ccc(Br)cc2)c2ccccc21 | inconclusive: 30.3%
O=C(/C=C/c1c(F)cccc1Cl)c1ccc(O)cc1 | active: 79.2%
C#CCOCCOCCOCCNc1nc(N2CCN(C(=O)C(Cc3cc4ccccc4[nH]3)n3cc(C(N)C(C)CC)nn3)CC2)nc(N2CCN(C(=O)C(Cc3cc4ccccc4[nH]3)n3cc(C(N)C(C)CC)nn3)CC2)n1 (stereo not drawn) | active: 54.9%
CCOc1cc(/C=C/C(=O)c2ccc(O)cc2)ccc1OCC(=O)N(C)C | inconclusive: 31%
O=C(COC(=O)C12CC3CC(CC(C3)C1)C2)NC12CC3CC(CC(C3)C1)C2 | inconclusive: 35.7%
O=C(/C=C/c1ccccc1Cl)c1ccc(O)cc1 | inconclusive: 49.6%
O=C(N/N=C/c1ccccc1O)NC12CC3CC(CC(C3)C1)C2 | inconclusive: 62.4%
CC[C@]12c3[nH]c4cc(-c5ccco5)ccc4c3CCN1C(=O)[C@@H](CC(=O)NCCCOC)C[C@@H]2C(=O)N1CCN(C(=O)c2ccco2)CC1 | inconclusive: 32.4%
O=C1NC[C@H](Cc2ccccc2)N(C[C@H]2CCCN2C[C@H](Cc2ccccc2)N2C[C@H](Cc3ccc(O)cc3)N(CC3CCCCCC3)C(=O)C2=O)C1=O | inconclusive: 32.1%

Some of the entries so far, with each value named.
c1ccc(C(c2ccccc2)c2noc(CN3CCC(c4ccncc4)CC3)n2)cc1
  inhibition: inactive: 14.5%
O=C(CCS(=O)(=O)c1ccccc1)N(CCCN1CCOCC1)c1nc2ccccc2s1
  inhibition: active: 37.9%
